The target of test [1] is LukS-PV (S subunit of Panton-Valentine leukocidin) (Staphylococcus aureus) (UniProt O80066). Nature of the test: neutron reflectometry; purified PVL (100 µg/ml) on supported POPC/TOCL (w/w 2:1) bilayer, neutral buffer (10 mM HEPES, pH/pD 7.4, 150 mM NaCl), 1 h, three isotopic contrasts; both purified.
Test [2] has as its target complement 5a receptor 1 (C5aR1) (human (endogenous in THP-1 and hiPSC-derived macrophages)) (UniProt P21730). Nature of the test: flow cytometry on cells; THP-1 macrophages (WT Cas9, SGMS1 KO, C5aR1 KO; also PBS or MβCD treated) exposed to PVL or LukS-PV; cell-surface LukS-PV detected with anti-LukS-PV antibodies; binding reduced on SGMS1 KO cells; only the binder purified.

The chains behind the UniProt entries cited, without tags or fusion partners. Where a name states a change or a piece, a line headed by the entry shows the natural chain unless it says otherwise.
UniProt P21730: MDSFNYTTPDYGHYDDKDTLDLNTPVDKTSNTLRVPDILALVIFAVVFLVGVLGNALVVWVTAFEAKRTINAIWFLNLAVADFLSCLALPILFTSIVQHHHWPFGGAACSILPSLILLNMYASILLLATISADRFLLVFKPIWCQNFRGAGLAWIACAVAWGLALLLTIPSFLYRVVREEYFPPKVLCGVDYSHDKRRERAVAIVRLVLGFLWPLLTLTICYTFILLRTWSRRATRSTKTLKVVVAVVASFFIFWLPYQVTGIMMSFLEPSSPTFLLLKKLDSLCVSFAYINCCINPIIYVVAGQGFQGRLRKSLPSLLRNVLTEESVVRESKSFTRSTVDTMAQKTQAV
UniProt O80067: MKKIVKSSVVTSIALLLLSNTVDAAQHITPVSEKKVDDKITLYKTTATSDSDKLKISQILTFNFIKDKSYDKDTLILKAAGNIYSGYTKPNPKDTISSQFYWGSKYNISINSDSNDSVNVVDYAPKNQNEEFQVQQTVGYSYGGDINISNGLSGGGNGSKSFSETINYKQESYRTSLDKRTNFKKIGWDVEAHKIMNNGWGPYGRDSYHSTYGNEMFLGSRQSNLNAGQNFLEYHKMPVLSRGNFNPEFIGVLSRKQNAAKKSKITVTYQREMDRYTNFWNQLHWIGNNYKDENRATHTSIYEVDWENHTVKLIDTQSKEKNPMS

For test [3] the target is unchanged. As to the kind of experiment: immunoblot of lysates of toxin-treated cells; total cell lysates of WT, C5aR1 KO and SGMS1 KO THP-1 macrophages treated with PVL for 5, 15 and 30 min, probed with antibodies against LukS-PV and C5aR1; only the binder purified.

These are yes or no findings as the source states them, for the method shown. For part of these data: Binding calls can cover weak binding; strength is not graded here.

Regarding “LukF-PV (F subunit of Panton-Valentine leukocidin) (from UniProt O80067)”, the binding result in test [1] was “no binding (only at pH 7.4 (POPC/TOCL bilayer))”.

Consider “LukS-PV (S subunit of Panton-Valentine leukocidin) (from UniProt O80066)”, for which the binding result in test [2] and in test [3] was “binds” in each case.

(Values after PMC12052211.)
